Compound in this assay: Nc1nc2c(ncn2[C@@H]2O[C@H](COP(=O)(O)OP(=O)(O)OP(=O)(O)O)[C@@H](O)[C@H]2O)c(=O)[nH]1 [guanosine triphosphate]
As to the kind of experiment: NP40-soluble protein abundance relative to vehicle (solubility fold change) (ratio); higher = more soluble protein in presence of GTP. The method, then:
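Solubility proteome profiling in Jurkat crude lysate. Lysate was treated with Mg-GTP (0.1-10 mM) for 10 min at room temperature and 3 min at 37 °C, then solubilised with 0.8% NP40 and benzonase, followed by ultracentrifugation. Proteins were quantified by TMT10 LC-MS/MS; the value is the NP40-soluble abundance relative to the NP40-processed vehicle, from 3 independent experiments.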

Sequences of proteins named here, by UniProt entry; tags and fusion partners are left off. A change or cut given only in a name is not applied to a line headed by its entry.
UniProt Q9NQI0, whole entry: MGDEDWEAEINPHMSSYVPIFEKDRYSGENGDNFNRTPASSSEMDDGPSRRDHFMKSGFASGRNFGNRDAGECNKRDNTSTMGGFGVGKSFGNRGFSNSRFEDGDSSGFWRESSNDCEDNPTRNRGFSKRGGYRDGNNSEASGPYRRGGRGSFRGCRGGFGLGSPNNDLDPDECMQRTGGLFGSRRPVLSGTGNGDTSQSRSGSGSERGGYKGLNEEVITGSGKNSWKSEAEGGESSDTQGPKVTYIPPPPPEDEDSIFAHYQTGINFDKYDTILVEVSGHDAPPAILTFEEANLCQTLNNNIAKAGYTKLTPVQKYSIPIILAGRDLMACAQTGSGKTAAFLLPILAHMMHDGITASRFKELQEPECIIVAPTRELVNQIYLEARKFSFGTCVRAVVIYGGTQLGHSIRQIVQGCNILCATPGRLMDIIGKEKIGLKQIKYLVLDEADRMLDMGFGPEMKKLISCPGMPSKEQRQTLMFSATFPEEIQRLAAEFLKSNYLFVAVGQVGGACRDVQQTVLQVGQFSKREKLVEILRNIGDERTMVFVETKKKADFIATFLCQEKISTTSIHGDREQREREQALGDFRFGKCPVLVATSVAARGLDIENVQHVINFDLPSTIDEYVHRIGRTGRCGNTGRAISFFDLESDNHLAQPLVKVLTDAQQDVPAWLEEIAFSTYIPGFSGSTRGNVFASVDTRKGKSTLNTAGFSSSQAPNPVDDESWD
UniProt P63208, whole entry: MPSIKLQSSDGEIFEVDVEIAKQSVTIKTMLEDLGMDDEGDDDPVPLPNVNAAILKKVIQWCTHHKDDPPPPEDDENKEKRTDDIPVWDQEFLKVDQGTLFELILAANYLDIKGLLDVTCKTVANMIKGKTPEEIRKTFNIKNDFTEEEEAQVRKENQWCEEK
UniProt Q96IZ7: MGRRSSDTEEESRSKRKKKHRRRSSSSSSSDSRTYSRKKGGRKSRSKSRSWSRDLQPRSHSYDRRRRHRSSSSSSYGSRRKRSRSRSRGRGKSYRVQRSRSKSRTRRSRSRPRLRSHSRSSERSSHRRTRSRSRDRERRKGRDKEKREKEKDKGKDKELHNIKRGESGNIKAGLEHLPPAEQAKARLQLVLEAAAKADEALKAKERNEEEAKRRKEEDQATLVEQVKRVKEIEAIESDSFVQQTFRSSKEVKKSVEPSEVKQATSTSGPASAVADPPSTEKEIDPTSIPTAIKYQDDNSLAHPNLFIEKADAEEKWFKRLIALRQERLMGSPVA

± gives the standard deviation of the averaged measurements. The list shows a part of the results.

With “D6RCM4 and related entries (UniProt Q9NQI0)”, the NP40-soluble protein abundance runs as follows: (concentration: 0.1mM) 1.07 ± 0.12; (concentration: 0.5mM) 1.09 ± 0.16; (concentration: 1mM) 0.998 ± 0.2; (concentration: 2mM) 1.04 ± 0.27; (concentration: 4mM) 1.01 ± 0.22; (concentration: 6mM) 1.05 ± 0.28. Moreover, the NP40-soluble protein abundance (concentration: 8mM) was 0.939 ± 0.16 and the NP40-soluble protein abundance (concentration: 10mM) is 0.872 ± 0.16.
For the target “C9K025 and related entries (UniProt P18077)”, the NP40-soluble protein abundance runs as follows: (concentration: 0.1mM) 1.07 ± 0.2; (concentration: 0.5mM) 1.15 ± 0.29; (concentration: 1mM) 1.05 ± 0.31; (concentration: 2mM) 1.06 ± 0.4; (concentration: 4mM) 0.894 ± 0.38; (concentration: 6mM) 0.846 ± 0.33. Also, the NP40-soluble protein abundance was 0.503 ± 0.14 (concentration: 8mM) and 0.824 ± 0.32 (concentration: 10mM).
Consider “E5RJR5 and related entries (UniProt P63208)”, for which the NP40-soluble protein abundance runs as follows: (concentration: 0.1mM) 0.927 ± 0.096; (concentration: 0.5mM) 0.91 ± 0.052; (concentration: 1mM) 1.08 ± 0.16; (concentration: 2mM) 1.06 ± 0.083; (concentration: 4mM) 1.05 ± 0.081; (concentration: 6mM) 1.05 ± 0.081. The NP40-soluble protein abundance came out at 1.09 ± 0.11 (concentration: 8mM) and 1.13 ± 0.15 (concentration: 10mM).
As to “E5RJI7 and related entries (UniProt Q9BYD1)”, the NP40-soluble protein abundance (concentration: 0.1mM) came to 1.11 ± 0.21; the NP40-soluble protein abundance (concentration: 0.5mM) stood at 1.16 ± 0.13; the NP40-soluble protein abundance (concentration: 1mM) is 1.31 ± 0.29; the NP40-soluble protein abundance (concentration: 2mM) is 1.34 ± 0.32; the NP40-soluble protein abundance (concentration: 4mM) was found to be 1.47 ± 0.44; the NP40-soluble protein abundance (concentration: 6mM) amounted to 1.35 ± 0.31. The NP40-soluble protein abundance is 1.43 ± 0.37 (concentration: 8mM) and 1.31 ± 0.32 (concentration: 10mM).
Turning to “C9J713 and related entries (UniProt Q96IZ7)”, the NP40-soluble protein abundance was determined as 1.01 ± 0.061 (concentration: 0.1mM); 1.13 ± 0.087 (concentration: 0.5mM); 1.21 ± 0.064 (concentration: 1mM); 1.05 ± 0.074 (concentration: 2mM); 0.968 ± 0.037 (concentration: 4mM); 0.975 ± 0.059 (concentration: 6mM). Further, the NP40-soluble protein abundance stood at 1.18 ± 0.072 (concentration: 8mM) and 1.16 ± 0.16 (concentration: 10mM).

The values above are taken from the supplement of paper PMC6411743.
